Test results from the supplement of paper PMC12819154, “High-throughput peptide-centric local stability assay extends protein–ligand identification to membrane proteins, tissues and bacteria” (Nature Structural & Molecular Biology, 2025).
This is one part of the list. Small differences around the control level are noise.

The chains behind the UniProt entries cited, without tags or fusion partners. Where a name states a change or a piece, a line headed by the entry shows the natural chain unless it says otherwise.
UniProt O75431: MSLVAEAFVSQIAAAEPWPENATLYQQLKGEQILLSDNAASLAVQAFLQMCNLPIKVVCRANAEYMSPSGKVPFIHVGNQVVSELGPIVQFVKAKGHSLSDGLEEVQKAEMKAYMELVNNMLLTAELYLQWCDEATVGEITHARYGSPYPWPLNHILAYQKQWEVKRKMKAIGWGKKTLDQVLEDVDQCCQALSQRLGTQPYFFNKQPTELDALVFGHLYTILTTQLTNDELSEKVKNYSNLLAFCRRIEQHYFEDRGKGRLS
UniProt O95456: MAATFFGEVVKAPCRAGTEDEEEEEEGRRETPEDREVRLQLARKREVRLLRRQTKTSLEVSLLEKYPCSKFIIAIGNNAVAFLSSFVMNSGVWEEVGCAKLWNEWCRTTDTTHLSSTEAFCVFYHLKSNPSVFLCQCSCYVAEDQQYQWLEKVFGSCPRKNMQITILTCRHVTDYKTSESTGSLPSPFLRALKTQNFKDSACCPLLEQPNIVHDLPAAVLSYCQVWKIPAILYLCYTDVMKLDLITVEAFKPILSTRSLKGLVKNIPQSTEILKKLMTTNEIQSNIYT
UniProt O95935: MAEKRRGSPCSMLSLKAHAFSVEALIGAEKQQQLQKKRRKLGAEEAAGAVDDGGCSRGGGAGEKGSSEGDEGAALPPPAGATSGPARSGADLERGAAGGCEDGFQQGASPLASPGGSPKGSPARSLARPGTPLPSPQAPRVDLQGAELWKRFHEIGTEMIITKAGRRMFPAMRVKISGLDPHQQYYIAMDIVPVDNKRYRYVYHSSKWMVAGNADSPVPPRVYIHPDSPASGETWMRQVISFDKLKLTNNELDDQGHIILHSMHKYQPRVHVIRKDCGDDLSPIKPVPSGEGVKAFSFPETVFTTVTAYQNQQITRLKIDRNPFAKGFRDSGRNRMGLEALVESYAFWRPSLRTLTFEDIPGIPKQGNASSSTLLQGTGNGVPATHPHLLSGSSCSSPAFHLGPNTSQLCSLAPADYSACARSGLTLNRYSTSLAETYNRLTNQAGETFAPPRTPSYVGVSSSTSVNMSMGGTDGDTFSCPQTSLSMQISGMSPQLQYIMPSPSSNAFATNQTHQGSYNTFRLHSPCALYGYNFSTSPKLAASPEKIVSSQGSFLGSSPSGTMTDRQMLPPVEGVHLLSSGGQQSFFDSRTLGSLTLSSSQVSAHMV
UniProt O94875: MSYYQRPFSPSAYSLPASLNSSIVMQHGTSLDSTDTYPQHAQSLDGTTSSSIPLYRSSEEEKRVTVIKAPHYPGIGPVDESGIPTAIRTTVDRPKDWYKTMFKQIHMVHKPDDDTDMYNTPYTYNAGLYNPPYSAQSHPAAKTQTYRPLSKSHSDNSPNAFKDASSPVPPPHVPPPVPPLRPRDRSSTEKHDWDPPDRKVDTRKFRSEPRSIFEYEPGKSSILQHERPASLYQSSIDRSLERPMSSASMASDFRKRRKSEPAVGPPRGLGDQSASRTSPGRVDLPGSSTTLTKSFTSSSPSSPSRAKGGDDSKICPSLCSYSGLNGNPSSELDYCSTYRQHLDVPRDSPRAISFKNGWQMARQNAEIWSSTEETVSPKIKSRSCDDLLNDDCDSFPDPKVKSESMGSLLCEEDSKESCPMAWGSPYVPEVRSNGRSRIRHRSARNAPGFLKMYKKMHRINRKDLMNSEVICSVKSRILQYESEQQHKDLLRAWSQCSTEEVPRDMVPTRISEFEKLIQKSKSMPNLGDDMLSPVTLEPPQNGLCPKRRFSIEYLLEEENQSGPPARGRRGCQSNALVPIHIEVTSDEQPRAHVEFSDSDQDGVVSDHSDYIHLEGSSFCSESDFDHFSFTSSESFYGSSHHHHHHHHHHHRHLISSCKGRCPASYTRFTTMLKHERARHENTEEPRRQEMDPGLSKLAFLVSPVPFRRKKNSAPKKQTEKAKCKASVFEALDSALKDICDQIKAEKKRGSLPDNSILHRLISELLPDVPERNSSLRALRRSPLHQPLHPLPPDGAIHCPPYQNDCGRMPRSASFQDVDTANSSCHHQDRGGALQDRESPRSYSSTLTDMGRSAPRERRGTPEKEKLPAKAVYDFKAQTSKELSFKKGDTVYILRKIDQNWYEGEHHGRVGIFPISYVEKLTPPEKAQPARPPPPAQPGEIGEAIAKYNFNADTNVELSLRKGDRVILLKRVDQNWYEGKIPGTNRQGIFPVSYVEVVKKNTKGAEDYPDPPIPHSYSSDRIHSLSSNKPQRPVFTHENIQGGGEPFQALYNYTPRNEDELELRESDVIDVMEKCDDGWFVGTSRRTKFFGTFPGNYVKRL
UniProt O75956: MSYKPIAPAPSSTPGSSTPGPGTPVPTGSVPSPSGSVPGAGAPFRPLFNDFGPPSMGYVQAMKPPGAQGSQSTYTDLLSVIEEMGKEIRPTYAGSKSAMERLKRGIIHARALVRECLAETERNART
UniProt O75529: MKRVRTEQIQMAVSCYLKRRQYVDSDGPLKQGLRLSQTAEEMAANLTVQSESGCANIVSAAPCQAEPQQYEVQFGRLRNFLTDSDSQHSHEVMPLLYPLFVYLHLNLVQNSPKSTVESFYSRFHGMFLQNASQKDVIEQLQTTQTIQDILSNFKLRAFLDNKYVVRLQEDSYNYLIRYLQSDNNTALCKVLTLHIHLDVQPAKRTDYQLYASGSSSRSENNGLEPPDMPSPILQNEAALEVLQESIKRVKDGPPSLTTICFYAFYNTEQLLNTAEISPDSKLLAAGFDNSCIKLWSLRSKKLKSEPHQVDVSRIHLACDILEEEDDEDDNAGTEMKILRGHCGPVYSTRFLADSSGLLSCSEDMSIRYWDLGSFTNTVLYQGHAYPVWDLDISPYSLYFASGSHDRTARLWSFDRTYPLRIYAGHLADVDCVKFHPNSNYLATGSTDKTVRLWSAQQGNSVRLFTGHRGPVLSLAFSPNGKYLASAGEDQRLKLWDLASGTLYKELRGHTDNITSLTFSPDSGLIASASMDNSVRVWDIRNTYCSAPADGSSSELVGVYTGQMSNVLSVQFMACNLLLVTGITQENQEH
UniProt O77932: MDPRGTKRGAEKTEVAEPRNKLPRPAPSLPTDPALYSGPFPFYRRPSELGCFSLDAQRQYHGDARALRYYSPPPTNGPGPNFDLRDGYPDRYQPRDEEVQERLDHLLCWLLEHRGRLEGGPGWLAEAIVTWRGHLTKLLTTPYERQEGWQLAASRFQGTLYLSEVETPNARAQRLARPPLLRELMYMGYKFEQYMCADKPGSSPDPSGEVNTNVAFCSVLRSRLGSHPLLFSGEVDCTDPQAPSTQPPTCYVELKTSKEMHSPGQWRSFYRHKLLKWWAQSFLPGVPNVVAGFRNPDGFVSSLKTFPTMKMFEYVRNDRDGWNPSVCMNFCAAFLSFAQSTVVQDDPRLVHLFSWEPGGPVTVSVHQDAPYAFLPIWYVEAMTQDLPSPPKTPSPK
UniProt O94973, whole entry: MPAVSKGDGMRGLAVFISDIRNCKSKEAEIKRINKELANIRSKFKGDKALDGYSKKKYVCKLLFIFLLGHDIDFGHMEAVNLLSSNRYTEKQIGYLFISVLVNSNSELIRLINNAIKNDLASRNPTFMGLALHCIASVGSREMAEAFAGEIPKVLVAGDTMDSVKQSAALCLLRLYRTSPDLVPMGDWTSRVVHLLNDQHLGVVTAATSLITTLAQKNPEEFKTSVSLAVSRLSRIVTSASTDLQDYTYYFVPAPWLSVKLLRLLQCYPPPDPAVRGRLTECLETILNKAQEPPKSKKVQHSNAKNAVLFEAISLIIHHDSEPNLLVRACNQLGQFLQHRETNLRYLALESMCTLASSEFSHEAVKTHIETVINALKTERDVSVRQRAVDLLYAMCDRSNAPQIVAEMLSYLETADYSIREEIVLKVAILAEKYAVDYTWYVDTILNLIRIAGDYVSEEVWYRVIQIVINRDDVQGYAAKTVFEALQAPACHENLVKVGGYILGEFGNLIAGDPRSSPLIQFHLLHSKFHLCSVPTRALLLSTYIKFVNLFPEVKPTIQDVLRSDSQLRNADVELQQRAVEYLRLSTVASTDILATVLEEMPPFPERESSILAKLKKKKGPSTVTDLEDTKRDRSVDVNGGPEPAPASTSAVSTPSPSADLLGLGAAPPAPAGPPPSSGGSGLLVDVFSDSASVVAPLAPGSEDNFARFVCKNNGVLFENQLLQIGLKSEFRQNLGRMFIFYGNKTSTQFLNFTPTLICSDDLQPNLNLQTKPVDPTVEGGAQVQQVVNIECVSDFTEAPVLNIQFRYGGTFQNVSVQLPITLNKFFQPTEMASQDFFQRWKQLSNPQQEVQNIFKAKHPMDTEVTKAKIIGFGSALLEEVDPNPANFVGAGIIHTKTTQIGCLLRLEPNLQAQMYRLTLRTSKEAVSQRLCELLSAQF
UniProt O95340: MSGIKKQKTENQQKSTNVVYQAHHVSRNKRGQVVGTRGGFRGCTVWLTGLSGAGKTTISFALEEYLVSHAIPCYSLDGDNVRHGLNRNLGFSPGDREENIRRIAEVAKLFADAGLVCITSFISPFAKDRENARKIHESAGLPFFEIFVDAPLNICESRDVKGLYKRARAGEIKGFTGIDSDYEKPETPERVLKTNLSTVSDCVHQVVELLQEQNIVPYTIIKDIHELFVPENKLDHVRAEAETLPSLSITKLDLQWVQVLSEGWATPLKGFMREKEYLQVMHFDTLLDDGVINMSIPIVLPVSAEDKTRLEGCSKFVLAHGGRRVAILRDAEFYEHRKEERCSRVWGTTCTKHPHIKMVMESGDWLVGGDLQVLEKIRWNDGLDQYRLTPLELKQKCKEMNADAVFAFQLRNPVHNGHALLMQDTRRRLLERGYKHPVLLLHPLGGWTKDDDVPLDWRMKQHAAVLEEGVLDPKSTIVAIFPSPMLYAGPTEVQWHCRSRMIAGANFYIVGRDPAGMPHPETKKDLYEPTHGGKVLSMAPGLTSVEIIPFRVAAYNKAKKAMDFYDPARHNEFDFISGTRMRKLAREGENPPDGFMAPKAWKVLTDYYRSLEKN
UniProt O95382: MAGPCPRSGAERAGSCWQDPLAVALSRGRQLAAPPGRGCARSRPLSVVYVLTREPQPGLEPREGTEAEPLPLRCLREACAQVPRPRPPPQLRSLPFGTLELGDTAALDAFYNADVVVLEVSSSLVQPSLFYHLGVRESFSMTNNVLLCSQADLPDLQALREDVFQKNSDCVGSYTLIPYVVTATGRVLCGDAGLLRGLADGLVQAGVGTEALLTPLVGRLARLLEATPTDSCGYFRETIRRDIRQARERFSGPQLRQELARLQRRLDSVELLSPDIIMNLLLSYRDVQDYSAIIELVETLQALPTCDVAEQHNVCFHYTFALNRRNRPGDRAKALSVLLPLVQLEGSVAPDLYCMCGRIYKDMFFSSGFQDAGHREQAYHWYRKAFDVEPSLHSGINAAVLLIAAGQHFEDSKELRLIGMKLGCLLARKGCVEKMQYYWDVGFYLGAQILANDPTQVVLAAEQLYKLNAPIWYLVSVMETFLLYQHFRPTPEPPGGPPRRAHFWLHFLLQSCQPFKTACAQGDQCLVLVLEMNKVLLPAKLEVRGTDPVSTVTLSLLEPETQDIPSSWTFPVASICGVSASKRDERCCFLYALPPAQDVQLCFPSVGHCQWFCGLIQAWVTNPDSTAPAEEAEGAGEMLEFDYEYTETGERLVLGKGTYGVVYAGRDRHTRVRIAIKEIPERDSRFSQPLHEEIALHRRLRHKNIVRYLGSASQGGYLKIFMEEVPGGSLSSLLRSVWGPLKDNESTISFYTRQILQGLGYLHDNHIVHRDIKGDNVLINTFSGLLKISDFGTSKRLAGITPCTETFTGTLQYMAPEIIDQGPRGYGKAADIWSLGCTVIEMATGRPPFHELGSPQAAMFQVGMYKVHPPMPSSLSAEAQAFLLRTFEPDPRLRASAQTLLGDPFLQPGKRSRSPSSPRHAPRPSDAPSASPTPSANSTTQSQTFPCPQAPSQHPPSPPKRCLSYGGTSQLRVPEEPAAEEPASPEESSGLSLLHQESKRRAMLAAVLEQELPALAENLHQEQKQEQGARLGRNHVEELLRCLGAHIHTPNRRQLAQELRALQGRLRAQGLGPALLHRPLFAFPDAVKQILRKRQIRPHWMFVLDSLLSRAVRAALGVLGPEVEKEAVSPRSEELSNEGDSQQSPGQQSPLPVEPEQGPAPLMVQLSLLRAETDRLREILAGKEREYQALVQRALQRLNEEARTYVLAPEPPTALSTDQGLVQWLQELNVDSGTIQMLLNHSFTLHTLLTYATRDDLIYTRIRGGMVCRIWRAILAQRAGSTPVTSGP

Compound: Cc1nc(Nc2ncc(C(=O)Nc3c(C)cccc3Cl)s2)cc(N2CCN(CCO)CC2)n1 [dasatinib]
Experiment: log2 fold change of tryptic peptide abundance, ligand vs vehicle (limited proteolysis) (log2 ratio); higher = more trypsin-susceptible (destabilized)
Conditions: ligand concentration: 5 uM; sample: K562 cleared lysate

Target	log2 fold change
MTX2 (peptide sequence: RIEQHYFEDR, peptide start residue: 248) (UniProt O75431)	-0.332
PSMG1 (peptide sequence: TSLEVSLLEK, peptide start residue: 56) (UniProt O95456)	0.377
UniProt O95935 (peptide sequence: YVYHSSK, peptide start residue: 201)	-0.273
UniProt O94875 (peptide sequence: CDDGWFVGTSRR, peptide start residue: 1264)	0.264
CDK2AP2 (peptide sequence: ALVRECLAETER, peptide start residue: 111) (UniProt O75956)	-0.158
TAF5L (peptide sequence: VRTEQIQMAVSCYLK, peptide start residue: 4) (UniProt O75529)	-0.186
UniProt O77932 (peptide sequence: GAEKTEVAEPR, peptide start residue: 9)	0.0293
AP2A2 (peptide sequence: SSPLIQFHLLHSK, peptide start residue: 516) (UniProt O94973)	-0.286
PAPSS2 (peptide sequence: RGQVVGTR, peptide start residue: 40) (UniProt O95340)	0.195
UniProt O95382 (peptide sequence: NHVEELLR, peptide start residue: 1034)	0.22
IDH1 (peptide sequence: CATITPDEK, peptide start residue: 73) (UniProt O75874)	0.171

Reprinted at random: two entries already listed
Target	log2 fold change
AP2A2 (peptide sequence: SSPLIQFHLLHSK, peptide start residue: 516) (UniProt O94973)	-0.286
UniProt O94875 (peptide sequence: CDDGWFVGTSRR, peptide start residue: 1264)	0.264
